Experimental data from the supplement of paper PMC11264405.

How the values were obtained:
Assay in all cases: minimum inhibitory concentration
linezolid = compound: CC(=O)NC[C@H]1CN(c2ccc(N3CCOCC3)c(F)c2)C(=O)O1 [linezolid]
clindamycin = compound: CCC[C@@H]1C[C@@H](C(=O)N[C@@H]([C@H]2O[C@H](SC)[C@H](O)[C@@H](O)[C@H]2O)[C@H](C)Cl)N(C)C1 [clindamycin]
fidaxomicin = compound: CCc1c(Cl)c(O)c(Cl)c(O)c1C(=O)O[C@H]1[C@H](O)[C@H](OC)[C@H](OC/C2=C\C=C\C[C@H](O)/C(C)=C/[C@H](CC)[C@@H](O[C@@H]3OC(C)(C)[C@@H](OC(=O)C(C)C)[C@H](O)[C@@H]3O)/C(C)=C/C(C)=C/C[C@@H]([C@@H](C)O)OC2=O)O[C@@H]1C [fidaxomicin]
tigecycline = compound: CN(C)c1cc(NC(=O)CNC(C)(C)C)c(O)c2c1C[C@H]1C[C@H]3[C@H](N(C)C)C(O)=C(C(N)=O)C(=O)[C@@]3(O)C(O)=C1C2=O [tigecycline]
vancomycin = compound: CN[C@H](CC(C)C)C(=O)N[C@H]1C(=O)N[C@@H](CC(N)=O)C(=O)N[C@H]2C(=O)N[C@H]3C(=O)N[C@H](C(=O)N[C@H](C(=O)O)c4cc(O)cc(O)c4-c4cc3ccc4O)[C@H](O)c3ccc(c(Cl)c3)Oc3cc2cc(c3O[C@@H]2O[C@H](CO)[C@@H](O)[C@H](O)[C@H]2O[C@H]2C[C@](C)(N)[C@H](O)[C@H](C)O2)Oc2ccc(cc2Cl)[C@H]1O [vancomycin]
rifampicin = compound: CO[C@H]1/C=C/O[C@@]2(C)Oc3c(C)c(O)c4c(O)c(c(/C=N/N5CCN(C)CC5)c(O)c4c3C2=O)NC(=O)/C(C)=C\C=C\[C@H](C)[C@H](O)[C@@H](C)[C@@H](O)[C@@H](C)[C@H](OC(C)=O)[C@@H]1C [rifampicin]
imipenem = compound: C[C@@H](O)[C@H]1C(=O)N2C(C(=O)O)=C(SCCNC=N)C[C@H]12 [imipenem]
meropenem = compound: C[C@@H](O)[C@H]1C(=O)N2C(C(=O)O)=C(S[C@@H]3CN[C@H](C(=O)N(C)C)C3)[C@H](C)[C@H]12 [meropenem]
metronidazole = compound: Cc1ncc([N+](=O)[O-])n1CCO [metronidazole]

Test System | minimum inhibitory concentration (linezolid) [µg/mL] | minimum inhibitory concentration (clindamycin) [µg/mL] | minimum inhibitory concentration (fidaxomicin) [µg/mL] | minimum inhibitory concentration (tigecycline) [µg/mL] | minimum inhibitory concentration (vancomycin) [µg/mL] | minimum inhibitory concentration (rifampicin) [µg/mL] | minimum inhibitory concentration (imipenem) [µg/mL] | minimum inhibitory concentration (meropenem) [µg/mL] | minimum inhibitory concentration (metronidazole) [µg/mL]
Clostridioides difficile PCR ribotype 023 isolate #108 (European region: North, country: UK, isolate source: Human, ribotype: 023) | 2 | 0.25 | 0.06 | 0.06 | 1 | < 0.001 | 2 | 4 | < 0.125
Clostridioides difficile PCR ribotype 024 isolate #109 (European region: East, country: Romania, isolate source: Human, ribotype: 024) | < 0.125 | < 0.125 | 0.03 | < 0.03 | 0.5 | < 0.001 | 4 | 2 | < 0.125
Clostridioides difficile PCR ribotype 026 isolate #110 (European region: North, country: UK, isolate source: Human, ribotype: 026) | 2 | 8 | 0.015 | < 0.03 | 0.5 | < 0.001 | 2 | 2 | 0.25
Clostridioides difficile PCR ribotype 026 isolate #111 (European region: North, country: UK, isolate source: Human, ribotype: 026) | 2 | 16 | 0.06 | < 0.03 | 0.5 | < 0.001 | 2 | 2 | < 0.125
Clostridioides difficile PCR ribotype 026 isolate #112 (European region: North, country: Sweden, isolate source: Human, ribotype: 026) | 0.5 | 4 | 0.03 | < 0.03 | 0.5 | < 0.001 | 2 | 4 | < 0.125
Clostridioides difficile PCR ribotype 026 isolate #113 (European region: West, country: Netherlands, isolate source: Human, ribotype: 026) | 2 | 0.5 | 0.06 | < 0.03 | 0.5 | < 0.001 | 2 | 2 | < 0.125
Clostridioides difficile PCR ribotype 027 isolate #114 (European region: East, country: Poland, isolate source: Human, ribotype: 027) | 2 | 4 | 0.06 | < 0.03 | 1 | > 32 | 8 | 4 | 4
Clostridioides difficile PCR ribotype 027 isolate #115 (European region: East, country: Romania, isolate source: Human, ribotype: 027) | 2 | 16 | 0.03 | < 0.03 | 1 | > 32 | 4 | 4 | 1
Clostridioides difficile PCR ribotype 027 isolate #116 (European region: East, country: Romania, isolate source: Human, ribotype: 027) | 1 | 4 | 0.03 | < 0.03 | 1 | > 32 | 4 | 4 | 1
Clostridioides difficile PCR ribotype 027 isolate #119 (European region: East, country: Poland, isolate source: Human, ribotype: 027) | 2 | 16 | 0.125 | < 0.03 | 1 | > 32 | 4 | 4 | 4
Clostridioides difficile PCR ribotype 027 isolate #120 (European region: East, country: Poland, isolate source: Human, ribotype: 027) | 2 | 8 | 0.03 | < 0.03 | 1 | < 0.001 | 8 | 4 | 4
Clostridioides difficile PCR ribotype 027 isolate #121 (European region: South, country: Italy, isolate source: Human, ribotype: 027) | 2 | 4 | 0.008 | < 0.03 | 0.5 | > 32 | 4 | 4 | 1
